Data published in the supplement of paper PMC12889115.
The other results are listed elsewhere or left out. Values are raw readings; no control value is given beside them.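 First-pass screen: polymyxin B was added at a level that permeabilizes the Salmonella outer membrane while sparing the inner membrane. DMSO wells, with and without polymyxin B, defined maximum growth. Because plates differed from one another, each plate's data were ranked separately and the compounds with the lowest OD600 were carried forward as hits.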

System: Salmonella enterica serovar Typhimurium SL1344
Assay: bacterial growth OD600 after 18 h with compound and polymyxin B; higher = more bacterial growth (less inhibition)
Conditions: 50 µM, Mueller-Hinton broth

Compound: C=C(C)CNC(=O)C1CCC(=O)N(C2CCCC2)C1 (centres undefined)
- bacterial growth OD600 (polymyxin B 1 µg/mL): 0.966

Compound: O=C(NCC1CCCN(Cc2ccc3c(c2)OCCO3)C1)c1cc2ccccc2[nH]1 (centres undefined)
- bacterial growth OD600 (polymyxin B 1 µg/mL): 0.852

Compound: CCn1nc(C)c(CN2CCC(CO)(Cc3cccc(C(F)(F)F)c3)CC2)c1C
- bacterial growth OD600 (polymyxin B 0.75 µg/mL): 0.829

Compound: COc1ccc(CC2(CCC(=O)N3CCN(c4cccc(C)c4C)CC3)CCC(=O)N2)c(F)c1 (centres undefined)
- bacterial growth OD600 (polymyxin B 0.75 µg/mL): 0.012

Compound: CCC1CN(Cc2ccc(F)c(OC)c2)Cc2cc(OC)ccc2O1 (centres undefined)
- bacterial growth OD600 (polymyxin B 0.75 µg/mL): 0.712

Compound: OC(CCc1ccccc1)c1ccc2c(c1)CN(Cc1cccc3cccnc13)CCO2 (centres undefined)
- bacterial growth OD600 (polymyxin B 0.75 µg/mL): 0.611

Compound: Cc1cc(C)n(CC(=O)N(Cc2ccncc2)Cc2cccc(OCCc3ccc(F)cc3)c2)n1
- bacterial growth OD600 (polymyxin B 0.75 µg/mL): 0.001

Compound: COc1ccc(CCN2CC(NC(=O)CC(C)C)CC2=O)cc1 (centres undefined)
- bacterial growth OD600 (polymyxin B 1 µg/mL): 0.895

Compound: COc1ccc(S(=O)(=O)NCc2nc(NCCCc3ccccc3)c3ccccc3n2)cc1OC
- bacterial growth OD600 (polymyxin B 0.75 µg/mL): 0.398

Compound: COC(=O)c1ccc(N2C[C@H]3OC(=O)N(Cc4ccccn4)[C@H]3C2)nc1
- bacterial growth OD600 (polymyxin B 1 µg/mL): 1.08

Compound: O=C(NC1CCCC1)c1ccc(OC2CCN(C(=O)c3cccnc3)CC2)c(Cl)c1
- bacterial growth OD600 (polymyxin B 1 µg/mL): 1.1

Compound: CCn1ncc(CN(C)CC2CCN(CCc3cccc(F)c3)CC2)c1C
- bacterial growth OD600 (polymyxin B 1 µg/mL): 1.1

Compound: COCCNC(=O)CCC1CCN(Cc2nc3ccccc3n2C)CC1
- bacterial growth OD600 (polymyxin B 1 µg/mL): 0.888

Compound: COCCC(=O)N1CCC(Oc2ccc(C(=O)N(C)CCOC)cc2)CC1
- bacterial growth OD600 (polymyxin B 0.75 µg/mL): 0.974

Compound: COCCN(Cc1ccccn1)C(Cc1ccccc1)C1CCN(Cc2ccc3nccnc3c2)CC1 (centres undefined)
- bacterial growth OD600 (polymyxin B 0.75 µg/mL): 0.776

Compound: COCCC(=O)NC1CCCN(CCc2ccccc2)C1 (centres undefined)
- bacterial growth OD600 (polymyxin B 1 µg/mL): 1.23

Compound: COCC1CCN(C(=O)CC2(c3ccccc3)CC(=O)N(CCCOc3cccnc3)C2=O)CC1 (centres undefined)
- bacterial growth OD600 (polymyxin B 0.75 µg/mL): 0.795

Compound: CCOC(=O)C1(Cc2ccccc2C)CCCN(Cc2cnc(N3CCOCC3)s2)C1 (centres undefined)
- bacterial growth OD600 (polymyxin B 1 µg/mL): 0.904

Compound: COc1ccc(CNC(=O)CCC2CCCN(C/C=C/c3ccco3)C2)c(OC)c1 (centres undefined)
- bacterial growth OD600 (polymyxin B 0.75 µg/mL): 0.832
